Publication PMC12624062

By UniProt entry, the sequences of proteins in these tests, tags left out.
UniProt Q8CDG1: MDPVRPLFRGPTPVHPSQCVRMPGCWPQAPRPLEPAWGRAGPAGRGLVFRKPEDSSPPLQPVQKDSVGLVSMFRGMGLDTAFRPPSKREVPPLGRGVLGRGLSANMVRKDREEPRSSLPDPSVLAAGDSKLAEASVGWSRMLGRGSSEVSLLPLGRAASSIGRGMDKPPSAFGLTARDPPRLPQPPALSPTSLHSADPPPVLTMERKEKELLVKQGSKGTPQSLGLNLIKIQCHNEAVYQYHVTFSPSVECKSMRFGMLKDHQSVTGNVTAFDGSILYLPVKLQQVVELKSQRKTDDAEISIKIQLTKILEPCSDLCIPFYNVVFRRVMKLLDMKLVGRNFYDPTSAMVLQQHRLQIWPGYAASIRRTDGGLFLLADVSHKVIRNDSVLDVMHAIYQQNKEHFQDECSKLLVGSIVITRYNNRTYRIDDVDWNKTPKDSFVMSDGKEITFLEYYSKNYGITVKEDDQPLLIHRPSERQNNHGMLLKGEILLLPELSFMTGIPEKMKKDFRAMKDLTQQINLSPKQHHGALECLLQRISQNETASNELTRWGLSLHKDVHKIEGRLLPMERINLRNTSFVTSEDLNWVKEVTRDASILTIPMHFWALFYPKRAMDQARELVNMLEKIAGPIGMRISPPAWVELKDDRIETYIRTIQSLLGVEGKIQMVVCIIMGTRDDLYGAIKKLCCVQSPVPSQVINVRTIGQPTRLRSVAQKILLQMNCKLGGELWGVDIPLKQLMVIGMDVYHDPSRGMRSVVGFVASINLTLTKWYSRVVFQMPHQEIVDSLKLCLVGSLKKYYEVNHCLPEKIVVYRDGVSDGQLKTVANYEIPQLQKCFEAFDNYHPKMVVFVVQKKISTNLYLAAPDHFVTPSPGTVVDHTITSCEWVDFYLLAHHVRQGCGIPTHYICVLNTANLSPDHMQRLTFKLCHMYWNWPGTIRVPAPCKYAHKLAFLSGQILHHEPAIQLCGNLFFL
UniProt Q9D5P4: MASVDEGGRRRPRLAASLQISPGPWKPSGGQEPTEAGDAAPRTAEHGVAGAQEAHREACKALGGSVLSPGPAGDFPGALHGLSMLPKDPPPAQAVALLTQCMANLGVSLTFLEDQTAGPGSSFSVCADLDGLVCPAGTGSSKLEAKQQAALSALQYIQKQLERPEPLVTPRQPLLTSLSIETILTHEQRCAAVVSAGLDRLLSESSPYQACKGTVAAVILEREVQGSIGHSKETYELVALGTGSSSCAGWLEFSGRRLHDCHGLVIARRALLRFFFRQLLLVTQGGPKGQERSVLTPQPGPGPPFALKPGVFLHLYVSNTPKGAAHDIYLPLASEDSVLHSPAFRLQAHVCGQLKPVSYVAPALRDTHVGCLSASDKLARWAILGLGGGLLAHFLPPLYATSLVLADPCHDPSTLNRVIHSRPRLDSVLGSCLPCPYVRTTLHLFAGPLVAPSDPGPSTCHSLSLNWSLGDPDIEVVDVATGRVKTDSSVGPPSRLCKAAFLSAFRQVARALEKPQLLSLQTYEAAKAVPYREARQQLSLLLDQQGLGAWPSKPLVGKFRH
UniProt Q9JMB7: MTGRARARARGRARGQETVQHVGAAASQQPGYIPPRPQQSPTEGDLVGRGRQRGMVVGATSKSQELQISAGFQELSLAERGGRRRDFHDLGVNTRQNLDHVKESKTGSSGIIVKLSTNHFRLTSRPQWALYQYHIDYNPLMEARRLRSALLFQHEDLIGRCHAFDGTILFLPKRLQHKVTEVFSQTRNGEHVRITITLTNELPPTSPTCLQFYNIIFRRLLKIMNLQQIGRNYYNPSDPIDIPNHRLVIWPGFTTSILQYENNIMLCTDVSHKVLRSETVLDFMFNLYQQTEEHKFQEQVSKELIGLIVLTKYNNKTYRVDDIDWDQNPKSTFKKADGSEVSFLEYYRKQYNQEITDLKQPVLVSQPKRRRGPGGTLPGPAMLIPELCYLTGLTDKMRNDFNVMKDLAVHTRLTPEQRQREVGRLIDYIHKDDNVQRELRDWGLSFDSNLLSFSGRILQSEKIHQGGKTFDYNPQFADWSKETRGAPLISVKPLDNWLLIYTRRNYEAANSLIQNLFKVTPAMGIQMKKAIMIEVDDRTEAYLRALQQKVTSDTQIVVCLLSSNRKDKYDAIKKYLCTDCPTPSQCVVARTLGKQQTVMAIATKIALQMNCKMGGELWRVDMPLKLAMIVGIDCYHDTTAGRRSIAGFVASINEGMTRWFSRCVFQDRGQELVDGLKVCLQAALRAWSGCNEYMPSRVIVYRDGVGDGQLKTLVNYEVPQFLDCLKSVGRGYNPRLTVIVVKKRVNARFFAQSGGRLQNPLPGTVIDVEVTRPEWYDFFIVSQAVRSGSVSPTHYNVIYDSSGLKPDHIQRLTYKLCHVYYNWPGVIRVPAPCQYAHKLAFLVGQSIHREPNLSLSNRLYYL

Legend:
[1] = biological target: PIWIL2 (endogenous, mouse testis) (mouse (endogenous in testis)) (UniProt Q8CDG1); experiment: affinity purification with mass spectrometry; P20 wild-type mouse testis lysates; IP with PIWIL2, ASZ1 or TDRD1 antibodies against rabbit IgG control; Protein A/G agarose; LC-MS; n = 3
[2] = biological target: T1, TDRD1 (endogenous, mouse testis) (mouse (endogenous in testis)) (UniProt Q99MV1); experiment: as above
T1 sequence: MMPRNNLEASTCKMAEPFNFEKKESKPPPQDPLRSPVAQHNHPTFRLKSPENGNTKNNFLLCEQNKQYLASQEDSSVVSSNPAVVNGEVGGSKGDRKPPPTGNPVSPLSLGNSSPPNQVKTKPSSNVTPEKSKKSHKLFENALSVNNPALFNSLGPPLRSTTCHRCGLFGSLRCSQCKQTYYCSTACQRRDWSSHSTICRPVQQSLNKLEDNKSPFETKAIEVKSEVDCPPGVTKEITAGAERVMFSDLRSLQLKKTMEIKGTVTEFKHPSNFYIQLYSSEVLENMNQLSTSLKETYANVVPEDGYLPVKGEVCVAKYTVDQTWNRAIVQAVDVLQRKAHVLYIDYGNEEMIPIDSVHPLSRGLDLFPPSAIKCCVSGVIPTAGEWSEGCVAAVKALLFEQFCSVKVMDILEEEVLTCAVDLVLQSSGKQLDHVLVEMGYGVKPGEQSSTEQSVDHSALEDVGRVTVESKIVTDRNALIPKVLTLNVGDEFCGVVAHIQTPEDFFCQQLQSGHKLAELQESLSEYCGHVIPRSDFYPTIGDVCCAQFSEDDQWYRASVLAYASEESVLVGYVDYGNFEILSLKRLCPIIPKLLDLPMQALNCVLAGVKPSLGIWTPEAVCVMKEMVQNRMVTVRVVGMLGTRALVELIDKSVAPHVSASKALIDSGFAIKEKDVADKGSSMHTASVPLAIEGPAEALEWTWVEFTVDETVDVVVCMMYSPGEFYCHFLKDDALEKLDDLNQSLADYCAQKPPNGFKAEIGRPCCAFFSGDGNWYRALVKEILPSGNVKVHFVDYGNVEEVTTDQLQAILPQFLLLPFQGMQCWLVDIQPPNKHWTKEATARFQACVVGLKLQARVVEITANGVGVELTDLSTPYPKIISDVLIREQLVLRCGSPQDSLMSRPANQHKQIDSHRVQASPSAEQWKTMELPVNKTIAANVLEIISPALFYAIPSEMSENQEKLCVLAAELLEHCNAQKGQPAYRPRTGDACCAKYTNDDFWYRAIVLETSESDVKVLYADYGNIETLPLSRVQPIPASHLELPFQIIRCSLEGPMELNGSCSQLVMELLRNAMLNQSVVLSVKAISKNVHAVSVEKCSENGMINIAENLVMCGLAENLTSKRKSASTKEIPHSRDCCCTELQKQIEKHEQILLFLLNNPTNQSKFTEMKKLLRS

Substance	binding [1]	binding [2]
ADAD2 (endogenous, mouse testis) (from UniProt Q9D5P4 1-561)	binds	–
PIWIL1 (endogenous, mouse testis) (from UniProt Q9JMB7 1-862)	binds	binds

No constants are given. Whether binding was seen depends on the method and setting. In cells and extracts the contact can be indirect. Here binding means that the protein was enriched with, or labelled near, the bait; the list need not be complete.
